From the supplement of paper PMC12009310
Structures can show the parent of a compound that is named as a salt. ± gives the standard deviation of the averaged measurements. This is one part of the list. Baselines shift from plate to plate; read single values as rough.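 The cells are a mouse kidney inner medullary collecting duct line, silenced either for the ciliary gene Rpgrip1l or with a non-targeting control siRNA.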

System: mIMCD3
Assay: robust z score of cell number vs plate controls; higher = more cells (less cytotoxic)
Details: 10 µM; 48 h; siRNA: siRpgrip1l

`O=C1NN(C(=O)Nc2ccc(Br)cc2)[C@@H](c2ccccc2)[C@@H]1c1ccccc1` and `CN=c1nc(-c2ccccc2)n(-c2ccccc2)s1` are within error of each other in “robust z score of cell number” value: -98.9 ± 110 for the first, -138 ± 100 for the second.

First: CCCCCCCC/C=C\CCCCCCCC(=O)NCc1ccc(O)c(OC)c1 [Olvanil]
Second: CCC(=O)NC1CCc2cccc(OC)c2C1 (centres undefined)
The “robust z score of cell number” value of the first is lower: -29.9 ± 1.5 for the first, -5.81 ± 3.6 for the second.

`CCOC(=O)c1cnc2c(cnn2CC)c1NN=C(C)C` [Etazolate hydrochloride] and `CC[N+](CC)(CC)CC(=O)Nc1c(C)cccc1C` [QX 314 chloride] are within error of each other in “robust z score of cell number” value: -27.9 ± 33 for the first, -7.52 ± 6.5 for the second.

`CC(C)[N+]1(C)[C@@H]2CC[C@H]1C[C@@H](OC(=O)C(CO)c1ccccc1)C2` (some centres undefined) [Ipratropium bromide] and `C[N+]1(C)CCC(OC(=O)C(c2ccccc2)c2ccccc2)CC1` are within error of each other in “robust z score of cell number” value: 0.11 ± 1.2 for the first, -3.37 ± 2.6 for the second.

`O=C(Nc1ccccc1)N[C@@H]1C[C@@H](C(=O)O)Nc2cc(Cl)cc(Cl)c21` and `Oc1cc2c(cc1O)C(c1ccccc1)CNCC2` (centres undefined) are within error of each other in “robust z score of cell number” value: -1.78 ± 1.6 for the first, -3.34 ± 0.55 for the second.

`O=C(Nc1ccncc1)c1cc([N+](=O)[O-])ccc1Cl` and `COc1cc(NC(=O)c2ccccn2)ccc1Cl` are within error of each other in “robust z score of cell number” value: -10 ± 6.4 for the first, -6.53 ± 0.43 for the second.

`N[C@@H](Cc1cc(-c2ccc(Cl)cc2Cl)cc(CP(=O)(O)O)c1O)C(=O)O` and `COc1ccc2c(c1)c(CC(=O)O)c(C)n2C(=O)c1ccc(Cl)cc1` [Indomethacin] are within error of each other in “robust z score of cell number” value: -37.2 ± 41 for the first, -8.19 ± 4.3 for the second.

`Nc1ccc(-c2cccc3c(=O)cc(N4CCOCC4)oc23)cc1` and `Cc1nnc(-c2ccc3occ(-c4ccc([S+](C)[O-])cc4)c3c2)o1` (centres undefined) are within error of each other in “robust z score of cell number” value: -13.8 ± 13 for the first, 6.23 ± 7.7 for the second.

`Nc1nc2c(ccc3ccccc32)s1` and `CC(=O)NCCc1c(Cc2ccccc2)[nH]c2ccccc12` [Luzindole] are within error of each other in “robust z score of cell number” value: -28 ± 34 for the first, -2.95 ± 0.25 for the second.

`Clc1ccc2c(c1)N=C(N1CCNCC1)c1ccccc1N2` [N-Desmethylclozapine] and `CCN(CC)CC1CCCCN1CC(=O)N1c2ccccc2C(=O)Nc2cccnc21` (centres undefined) are within error of each other in “robust z score of cell number” value: -20.6 ± 2.9 for the first, -12.8 ± 9.9 for the second.

`O=c1c(-c2ccc(O)cc2)coc2cc(O)cc(O)c12` [Genistein] and `CC(C(=O)O)c1ccc(-c2ccccc2)c(F)c1` (centres undefined) [Flurbiprofen] are within error of each other in “robust z score of cell number” value: -30.2 ± 23 for the first, -23.8 ± 17 for the second.

`CC(C)(Sc1ccc(CCN(CCCCC2CCCCC2)C(=O)NC2CCCCC2)cc1)C(=O)O` and `CCC(CC)(CC(=O)Nc1cccc(/C=C/c2nc(C3CCC3)cs2)c1)C(=O)O` [Cinalukast] are within error of each other in “robust z score of cell number” value: -44.7 ± 41 for the first, -19.4 ± 12 for the second.

`N#Cc1ccccc1OCC(O)CNCCNC(=O)Nc1ccccc1` (centres undefined) and `O=C(O)Cc1ccc(OCCNC[C@H](O)c2ccccc2)cc1` [ZD 2079 hydrochloride] are within error of each other in “robust z score of cell number” value: -17.6 ± 18 for the first, -0.642 ± 0.053 for the second.

Compared with `CN(C)CCCSc1ccccc1NC(=O)/C=C/c1ccccc1` [Cinanserin hydrochloride], `CNCCC(Oc1ccccc1OC)c1ccccc1` (centres undefined) [Nisoxetine hydrochloride] is higher in “robust z score of cell number” value: -36.4 ± 28 for the first, -4.3 ± 1.7 for the second.

Compared with `Cc1ccc(/C(=C\CN2CCCC2)c2ccccn2)cc1` [trans-Triprolidine hydrochloride], `CN(C)C/C=C(/c1ccc(Br)cc1)c1cccnc1` [Zimelidine dihydrochloride] is lower in “robust z score of cell number” value: 15 ± 8.8 for the first, -1.94 ± 3.3 for the second.

Compared with `COc1cc(N)c(Cl)cc1C(=O)OCCCN1CCCCC1`, `COc1cc2nc(N3CCN(C(=O)c4ccco4)CC3)nc(N)c2cc1OC` [Prazosin hydrochloride] is lower in “robust z score of cell number” value: -0.243 ± 1.8 for the first, -57.7 ± 37 for the second.

First: C=CCc1cccc(/C=N/NC(=O)CN2CCN(Cc3ccccc3)CC2)c1O
Second: Cc1nn(-c2ccccc2)c(C)c1C=NN1CCN(Cc2ccccc2)CC1
The “robust z score of cell number” value of the first is lower: -32.5 ± 10 for the first, 0.885 ± 2.1 for the second.

`CC(C)(C=O)Cc1cc(C(C)(C)C)c(O)c(C(C)(C)C)c1` and `C[C@@H](NCc1cc(Br)cc2[nH]c(=O)c(=O)[nH]c12)P(=O)(O)O` are within error of each other in “robust z score of cell number” value: 1.81 ± 4.8 for the first, -30.3 ± 35 for the second.

`CNC(=O)[C@H]1O[C@@H](n2cnc3c(NCc4cccc(I)c4)ncnc32)[C@H](O)[C@@H]1O` and `COc1cccc2c1C(=O)c1c(O)c3c(c(O)c1C2=O)C[C@@](O)(C(C)=O)C[C@@H]3O[C@H]1C[C@H](N)[C@H](O)[C@H](C)O1` [Daunorubicin hydrochloride] are within error of each other in “robust z score of cell number” value: -11.8 ± 6.4 for the first, -62 ± 53 for the second.

For `c1nc(CC2CCNCC2)c[nH]1` [Immepip dihydrobromide], the “robust z score of cell number” value was -1.39 ± 2.1.
